Measured data: PubChem BioAssay AID504808 (Drosophila RNAi Screening Center, 2011)

Purpose: 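Chromatin factors that keep E2F targets switched off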 (primary screen)
System: Drosophila S2 cells
Reagents: long dsRNA against Drosophila genes
Measurement: 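Firefly luciferase driven by E2F sites, normalised to Renilla luciferase on the same minimal promoter, measured by plate reader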
Scale: E2F firefly: higher = more E2F reporter activity; Renilla normaliser: higher = more normaliser reporter signal
Active means: 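a knock-down counted as active when the firefly/Renilla E2F signal rose above 50%, a threshold chosen arbitrarily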
The deposit covers about 21,000 reagents; this is a random part of those that have a named target and a result. In the full data, 18 (0.084%) got an active call. 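Raw counts without plate normalisation, one of two replicates; the ratio scores behind the calls were not deposited.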 Reagent sequences are not shown. The record does not give: the amount of reagent, the time to read-out.

predicted target | DRSC id | E2F firefly, rep 1 | Renilla normaliser, rep 1 | activity call
Pgam5 | DRSC18551 | 1756 | 988 | inactive
Mcad | DRSC09871 | 81607 | 3497 | inactive
Ms | DRSC16041 | 54184 | 3024 | inactive
CG6733 | DRSC16103 | 1.07e5 | 5893 | inactive
cer | DRSC05992 | 1.42e5 | 5717 | inactive
Marf | DRSC18329 | 7677 | 812 | inactive
CG31249 | DRSC16248 | 1.45e5 | 8861 | inactive
Spn85F | DRSC14545 | 55899 | 4754 | inactive
CG5347 | DRSC19942 | 1.64e5 | 6356 | inactive
Ankrd49 | DRSC01894 | 1.05e5 | 4408 | inactive
Zip88E | DRSC15562 | 1.17e5 | 5687 | inactive
CG12862 | DRSC06202 | 96882 | 4276 | inactive
CG14434 | DRSC17927 | 43130 | 3596 | inactive
CG10209 | DRSC05980 | 2814 | 213 | inactive
mRpL3 | DRSC20100 | 2.41e5 | 5883 | inactive
CR14499 (retired record) | DRSC06470 | 1.40e5 | 4826 | inactive
CG30291 | DRSC03842 | 1.24e5 | 5122 | inactive
Pgd | DRSC18697 | 1594 | 996 | inactive
bys | DRSC18748 | 7274 | 816 | inactive
mfas | DRSC16997 | 70956 | 3306 | inactive
CG13056 | DRSC09937 | 1.73e5 | 8043 | inactive
CG32606 (retired record) | DRSC19001 | 70733 | 2251 | inactive
CG32606 (retired record) | DRSC19371 | 2.29e5 | 6673 | inactive
CG32606 (retired record) | DRSC19372 | 1.95e5 | 13028 | inactive
CG32606 (retired record) | DRSC19373 | 2.24e5 | 8183 | inactive
CG3246 | DRSC00584 | 1.41e5 | 4848 | inactive
tacc | DRSC12019 | 76593 | 3383 | inactive
tacc | DRSC12388 | 92920 | 3507 | inactive
SmydA-1 | DRSC07200 | 2665 | 194 | inactive
CG15345 (retired record) | DRSC18030 | 1.07e5 | 5325 | inactive
rpr | DRSC11390 | 1.59e5 | 9061 | inactive
CG7402 | DRSC10839 | 1.66e5 | 8678 | inactive
usp | DRSC18847 | 75151 | 4224 | inactive
HINT1 | DRSC00548 | 1.68e5 | 5643 | inactive

Records listed so far whose target name begins with S or s (2):
predicted target | DRSC id | E2F firefly, rep 1 | Renilla normaliser, rep 1 | activity call
Spn85F | DRSC14545 | 55899 | 4754 | inactive
SmydA-1 | DRSC07200 | 2665 | 194 | inactive
